From publication PMC5027563, “Functional Recovery of AQP2 Recessive Mutations Through Hetero-Oligomerization with Wild-Type Counterpart” (Scientific Reports, 2016)
Substitutions are numbered along the chain they refer to. Numbers in names are those of the source. No constants are given. Whether binding was seen depends on the method and setting. Binding seen in cells or lysates may run through a third protein. Some results given as binding are weak or reduced against the parent protein; the word gives no strength. Sequences can lack the tags named with a protein.

Key:
[1] = molecular target: T1, GFP-tagged wild-type Aquaporin-2 (human, UniProt P41181 1-271); assay: co-IP; Xenopus oocytes co-injected with 0.5 ng mRNA of an untagged AQP2 variant and 1 ng (equimolar) of a GFP-tagged form, 24 h; total membranes solubilised in 2% deoxycholate in PBS, 100,000 x g supernatant; IP with goat anti-GFP and protein-G magnetic beads at room temperature; blot with anti-AQP2 of the untagged 29 kDa band; densitometry in % of wt-AQP2, 4 assays
T1 construct: Aquaporin-2 (AQP2), human, wild type, from pT7Ts-GFP-AQP2 (subcloned through the pAc-GFP vector); 58 kDa with GFP; also called GFP-wt-AQP2; GFP-tagged-WT; source: Xenopus laevis oocytes, cRNA injected; total membranes solubilised in 2% deoxycholate
T1 sequence (looked up): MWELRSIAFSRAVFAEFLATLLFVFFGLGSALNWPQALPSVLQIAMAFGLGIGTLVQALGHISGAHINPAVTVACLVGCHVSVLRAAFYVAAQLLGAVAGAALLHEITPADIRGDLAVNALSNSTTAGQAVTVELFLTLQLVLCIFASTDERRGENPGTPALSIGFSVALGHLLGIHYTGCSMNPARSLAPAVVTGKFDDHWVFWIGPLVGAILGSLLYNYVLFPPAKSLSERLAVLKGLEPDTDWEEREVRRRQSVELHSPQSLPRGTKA

[2] = molecular target: T2, GFP-tagged Aquaporin-2 R187C (human) (UniProt P41181); assay: as above
T2 sequence: T1 sequence (looked up) with R187C

B1: wild-type Aquaporin-2 (untagged) (protein, UniProt P41181 1-271)
chain: T1 sequence (looked up)
Question: For B1, which binding [1] is on record?
Answer: binds

B2: Aquaporin-2 R187C (untagged) (natural protein, human, UniProt P41181 1-271, looked up)
chain: T1 sequence (looked up) with R187C
Question: With B2 as the binder, how does the binding [2] read?
Answer: no binding

Question: What about the binding [1] of the same binder?
Answer: no binding
